Source: PubChem BioAssay AID493014 (National Center for Advancing Translational Sciences (NCATS), 2011)
This is one part of the list. Further columns of the screen follow, without active or inactive calls. The list favours compounds with an active or inconclusive main result. Words in brackets tell the shape of the fitted curve; partial curves, single points and poor fits give uncertain potencies.

Assay: qHTS Assay to Find Inhibitors of Chronic Active B-Cell Receptor Signaling
Settings: ABC-DLBCL IkBa-CBG/CBR reporter, luminescence ratio (green luciferase fused to IkBa over red control in TMD8 lymphoma cells), 4 h
Method in brief: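 TMD8 ABC-DLBCL cells carrying doxycycline-inducible green luciferase fused to IkappaBalpha plus unfused red luciferase were exposed to compounds (up to 46 uM) for 4 hrs at 37C. Activity came from the overlap-corrected green/red luminescence ratio.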

[1] = measured here: CBR red luminescence, cell number
[2] = measured here: IkBa-CBG green luminescence

Row | SMILES | AC50 [1] | AC50 [2]
1 | O=C1CC2(CCN(C(=O)c3c(F)cccc3Cl)CC2)Oc2ccccc21 | 5.8 µM [falling, partial curve, poor fit] | –
2 | CC(C)CN(C(=O)c1ccc(S(=O)(=O)N2CCCC2)cc1)C1CCS(=O)(=O)C1 (stereo not drawn) | 20.6 µM [rising, partial curve] | –
3 | O=C(CSc1ccccn1)c1ccc2c(c1)OCO2 | 0.92 µM [rising, full curve, poor fit] | –
4 | CN=c1scc(-c2cccs2)n1/N=C/c1ccccc1O | 3.26 µM [falling, full curve] | 5.17 µM [falling, partial curve, poor fit]
5 | Cc1cccc(OCCCC(=O)NNC(=O)c2ccc(F)cc2)c1 | 4.11 µM [falling, single point] | –
6 | CC1CCC(C(C)C)C2=C1C(C#N)(C#N)C(C#N)(C#N)C(c1ccccc1)N2 (stereo not drawn) | 12.6 µM [falling, single point] | –
7 | COc1cccc(-c2cc(C(=O)Nc3cccnc3)no2)c1 | 6.51 µM [falling, partial curve] | –
8 | O=C(Cn1ncc(Cl)c(Cl)c1=O)N1CCN(Cc2ccccc2)CC1 | 8.91 µM [falling, partial curve, poor fit] | –
9 | COC(=O)C1=C(C)N(Cc2ccccc2)C(=S)N[C@H]1c1cccc(C(F)(F)F)c1 | 4.47 µM [falling, full curve] | 35.5 µM [rising, partial curve, poor fit]
10 | CC(=O)n1nc(-c2ccccc2)nc1NCc1ccc(N(C)C)cc1 | 28.2 µM [rising, single point] | –
11 | O=C(Nc1ccc(Cl)cc1Cl)c1csc(-c2cccnc2)n1 | 15.8 µM [rising, partial curve] | –
12 | Cc1cccc(C)c1-n1c(C)cc(/C=N\Nc2ccc([N+](=O)[O-])cn2)c1C | 0.146 µM [rising, full curve, poor fit] | –
13 | O=C(c1ccc(N2CCCCC2)c([N+](=O)[O-])c1)N1CCN(c2ccccn2)CC1 | 15.8 µM [rising, partial curve, poor fit] | –
14 | Cn1c(=O)cc(N2CCc3ccccc32)[nH]c1=O | 6.51 µM [falling, full curve] | –
15 | O=C(CNC(=O)c1ccccc1)OCC(=O)c1ccc(Cl)s1 | 20.6 µM [rising, single point] | 16.4 µM [falling, partial curve, poor fit]
16 | COc1ccccc1/C=N/Nc1nncc2ccccc12 | 7.31 µM [falling, partial curve] | –
17 | Cc1ccc(NC(=O)C(c2ccccc2)N2CCN(CC(=O)NC3CC3)CC2)cc1Cl (stereo not drawn) | 4.11 µM [rising, full curve, poor fit] | –
18 | COc1ccccc1OCC(=O)Nc1cc(Cl)ccc1N1CCCCC1 | 2.06 µM [falling, full curve] | –
19 | Nc1nc(Nc2ccc(Cl)cc2Cl)nc(C(F)(F)F)n1 | 6.51 µM [rising, single point] | –
20 | CN1C(=O)C(C)(C)c2cc(S(=O)(=O)N3CCN(c4ccc(F)cc4)CC3)ccc21 | 35.5 µM [falling, single point] | –
21 | CC(C)(C)OC(=O)N/N=C\c1ccc([N+](=O)[O-])s1 | 1.12 µM [rising, full curve, poor fit] | –

An excerpt of these results, as a markdown table:

| Row | SMILES | AC50 [1] | AC50 [2] |
| --- | --- | --- | --- |
| 5 | Cc1cccc(OCCCC(=O)NNC(=O)c2ccc(F)cc2)c1 | 4.11 µM [falling, single point] | – |
| 6 | CC1CCC(C(C)C)C2=C1C(C#N)(C#N)C(C#N)(C#N)C(c1ccccc1)N2 (stereo not drawn) | 12.6 µM [falling, single point] | – |

The list goes on.

Row | SMILES | AC50 [1] | AC50 [2]
22 | CCC(C)N(C(=O)CSc1nnc(-c2cccs2)n1C1CC1)C1CCS(=O)(=O)C1 (stereo not drawn) | 1.84 µM [rising, full curve, poor fit] | –
23 | Cc1ccc(-c2nnc(Oc3ccc(NC(=O)c4ccccc4)cc3)c3ccccc23)cc1 | 0.103 µM [rising, full curve, poor fit] | –
24 | CCOC(=O)C(=Cc1ccc(Br)cc1)C(=O)OCC | 5.01 µM [falling, full curve, poor fit] | 6.31 µM [rising, full curve, poor fit]
25 | CCCN(CCC)C(=O)Nc1ccc(F)cc1F | 12.6 µM [rising, partial curve, poor fit] | –
26 | Cc1ccc(-c2cc(C(=O)OCC(=O)N(C)C3CCS(=O)(=O)C3)c3ccccc3n2)o1 (stereo not drawn) | 25.1 µM [falling, single point] | –
27 | Cc1ccc(-c2cc(C(=O)NC3CCCCC3)no2)cc1 | 0.447 µM [falling, full curve, poor fit] | –
28 | CCCc1noc2c1C(c1ccoc1)C(C#N)=C(N)N2 (stereo not drawn) | 6.31 µM [falling, single point] | 35.5 µM [falling, partial curve, poor fit]
29 | CCOc1ccc2oc(C(=O)N(C)CC(=O)Nc3ccc(OCC)c(OCC)c3)c(C)c2c1 | 1.03 µM [rising, full curve, poor fit] | –
30 | C[C@@H]1NS(=O)(=O)[C@H]2C[C@@H]3C=C[C@]2(O3)[C@H]1OC(=O)c1ccccc1Br | 0.164 µM [falling, full curve, poor fit] | –
31 | O=C(O)CC1(CC(=O)Nc2ccc3c(c2)OCCCO3)CCCCC1 | 22.4 µM [falling, single point] | –
32 | CN(C)C(=O)CSc1nnc(-c2ccncc2)n1Cc1ccco1 | 0.501 µM [rising, full curve, poor fit] | –
33 | O=C(O)c1ccccc1SC1CC(=O)N(c2ccc3c(c2)OCO3)C1=O (stereo not drawn) | 35.5 µM [falling, single point] | –
34 | O=[N+]([O-])c1c(NCCCO)cc(Sc2nc3ccccc3s2)c2nonc12 | 6.31 µM [rising, single point] | –
35 | N#CC1C=Cc2ccccc2N1C(=O)c1ccccc1 (stereo not drawn) | 5.62 µM [falling, single point] | –
36 | COc1ccccc1OCc1ccc(C(=O)NCc2ccco2)o1 | 16.4 µM [falling, partial curve, poor fit] | –
37 | Clc1cccc(Cl)c1C1Nc2cccc3cccc(c23)N1 | 5.62 µM [falling, single point] | –
38 | Cc1cccc(-n2nnc(C(=O)NCc3ccco3)c2N)c1 | 35.5 µM [falling, single point] | –
39 | CCOc1ccc(C2C(C(C)=O)=C(O)C(=O)N2CCc2c[nH]c3ccccc23)cc1 (stereo not drawn) | 28.2 µM [falling, single point] | –
40 | COc1cc(OC)cc(C(=O)Nc2cccc(C(C)=O)c2)c1 | 2.91 µM [falling, partial curve, poor fit] | –
41 | O=C(C#Cc1ccccc1)Nc1ccc(F)cc1 | 12.6 µM [falling, partial curve] | –
42 | CCOC(=O)c1[nH]cnc1C(=O)N1CCC(C)CC1 | 25.9 µM [rising, single point] | –

Row | SMILES | AC50 [1] | AC50 [2]
43 | COc1ccc(N(CC(=O)N2CCN(C)CC2)S(C)(=O)=O)cc1OC | 23.1 µM [rising, partial curve, poor fit] | –
44 | C=CC[C@@H](Cc1ccc(F)cc1)C(=O)OC[C@@H]1CCCN1C(=O)[C@@H](CC=C)CC(=O)N[C@H](CO)Cc1ccccc1 | 29.1 µM [falling, single point] | –
45 | O=C(CN1CCc2ccccc21)NCc1ccccc1Cl | 16.4 µM [falling, partial curve] | –
46 | O=C(c1cc(-c2ccccc2Cl)nc2ccccc12)N1CCOCC1 | 10 µM [falling, partial curve, poor fit] | –
47 | CN(Cc1ccccc1)S(=O)(=O)c1cccs1 | 0.82 µM [falling, full curve, poor fit] | –
48 | Cc1cc(C)cc(-n2ncc3c2CCCC3NC(=O)c2cc(C)n(C)n2)c1 (stereo not drawn) | 35.5 µM [falling, partial curve, poor fit] | –
49 | COC(=O)c1cc2n(n1)CCN(Cc1ccccc1Cl)C2=O | 25.1 µM [falling, single point] | –
50 | COc1cc2cnc(-c3ccsc3)cc2cc1OC | 0.82 µM [rising, full curve, poor fit] | –
51 | O=c1[nH]c2cc([N+](=O)[O-])c(NCCO)c([N+](=O)[O-])c2[nH]1 | 35.5 µM [rising, single point] | –
52 | COc1ccc(-c2nnc3sc(-c4ccccc4OC)nn23)cc1 | 6.31 µM [rising, partial curve, poor fit] | –
53 | C=CCn1cnnc1SCC(=O)N(C)CC1COc2ccccc2O1 (stereo not drawn) | 0.00411 µM [rising, full curve, poor fit] | –
54 | CN(C)S(=O)(=O)N(CC(=O)Nc1ccc2ccccc2c1)c1ccccc1 | 1.64 µM [falling, full curve] | –
55 | C=CCNC(=S)N/N=C/c1ccc(C)c([N+](=O)[O-])c1 | 29.1 µM [rising, single point] | –
56 | COc1ccc(OC)c(NC(=O)CSc2ncccc2C(=O)O)c1 | 0.82 µM [falling, full curve, poor fit] | –
57 | COc1ccccc1CNC(=O)/C=C/c1cc2c(cc1Br)OCO2 | 10 µM [falling, partial curve, poor fit] | –
58 | C=CCc1cccc(/C=N/NC(=O)CNc2ccccc2OC)c1O | 35.5 µM [falling, single point] | –
59 | Cc1nc(N2CCN(Cc3nc4ccccc4[nH]3)CC2)c2oc3ccccc3c2n1 | 25.1 µM [falling, single point] | –
60 | COCC(=O)Nc1ccc(F)cc1 | 15.8 µM [falling, single point] | –
61 | COc1ccc(-c2csc(NC(=O)c3ccccc3OC)c2C(=O)O)cc1OC | 2.24 µM [falling, full curve] | –
62 | CN(C)CCCNc1c2ccccc2nc2ccccc12 | 14.1 µM [falling, partial curve, poor fit] | –
63 | CCOC(=O)C1(Cc2cccc(OC)c2)CCN(C/C=C/c2ccccc2)CC1 | 3.16 µM [rising, partial curve, poor fit] | –

Exported as labelled records: part of the list above.
O=C(CNC(=O)c1ccccc1)OCC(=O)c1ccc(Cl)s1
  AC50 [1]: 20.6 µM [rising, single point]; AC50 [2]: 16.4 µM [falling, partial curve, poor fit]
COc1cc2cnc(-c3ccsc3)cc2cc1OC
  AC50 [1]: 0.82 µM [rising, full curve, poor fit]
